# According to PubChem BioAssay AID248 (DTP/NCI, 2004):
# The list does not hold the whole screen: it is rich in T/C values a quarter to a half above the control, in often repeated tests (any T/C) and in doses without a T/C. Other doses and runs of a compound stand elsewhere. T/C gives the treated animals as a percentage of the vehicle group. Some doses have a count of surviving animals in place of a T/C: the source holds a T/C of zero for them, seemingly a mark for toxic or unscored doses. Some survivor counts are full or nearly so, which does not show that the dose was tolerated: the source hardly ever lists a survival T/C far under the control, and the zero likely stands for such cases as well. Counts of survivors are from the toxicity check (mostly the fifth day) where no day follows; animals may have died later. Schedules are NCI's codes, taken here to give the interval after Q, in days (D) or hours (H), and the number of doses after X. For survival time, the PubChem record calls one and a half times the control and up active, and a quarter to a half above the control has no call in these data; cut-offs in other NCI protocols can differ. Some schedules carry Z or #; the key to these is not given. Some T/C values are followed by the survivors on the day toxicity was checked, most often the fifth; where none is given, no animal had died by that day.
# Test system: L1210 leukemia ip in BDF1 mice, survival T/C
# Assay: NCI In Vivo Anticancer Drug Screen. Data for tumor model L1210 Leukemia (intraperitoneal) in B6D2F1 (BDF1) mice
# Details: T/C endpoint: mean survival time, higher T/C = longer survival
# [1] = dose: 200.0 mg/kg/injection, schedule: Q01DX001 (ip), vehicle: saline
# [2] = dose: 400.0 mg/kg/injection, schedule: Q01DX001 (ip), vehicle: saline
# [3] = dose: 100.0 mg/kg/injection, schedule: Q04DX003 (ip), vehicle: saline with Tween-80
# [4] = dose: 100.0 mg/kg/injection, schedule: Q04DX003 (ip), vehicle: saline
# [5] = dose: 200.0 mg/kg/injection, schedule: Q04DX003 (ip), vehicle: saline
# [6] = dose: 400.0 mg/kg/injection, schedule: Q04DX003 (ip), vehicle: saline
# [7] = dose: 12.5 mg/kg/injection, schedule: Q01DX009 (ip), vehicle: saline
# [8] = dose: 25.0 mg/kg/injection, schedule: Q01DX009 (ip), vehicle: saline
# [9] = dose: 100.0 mg/kg/injection, schedule: Q01DX001 (ip), vehicle: carboxymethylcellulose (CMC)
# [10] = dose: 200.0 mg/kg/injection, schedule: Q01DX001 (ip), vehicle: carboxymethylcellulose (CMC)
# [11] = dose: 400.0 mg/kg/injection, schedule: Q01DX001 (ip), vehicle: carboxymethylcellulose (CMC)
# [12] = dose: 300.0 mg/kg/injection, schedule: Q01DX001 (ip), vehicle: saline
# [13] = dose: 400.0 mg/kg/injection, schedule: Q04DX003 (ip), vehicle: saline with Tween-80
# [14] = dose: 100.0 mg/kg/injection, schedule: Q01DX009 (ip), vehicle: saline
# [15] = dose: 400.0 mg/kg/injection, schedule: Q01DX009 (ip), vehicle: saline
# [16] = dose: 100.0 mg/kg/injection, schedule: Q01DX009 (ip), vehicle: Klucel (hydroxypropylcellulose) (HPC)
# [17] = dose: 400.0 mg/kg/injection, schedule: Q01DX009 (ip), vehicle: Klucel (hydroxypropylcellulose) (HPC)
# [18] = dose: 400.0 mg/kg/injection, schedule: Q04DX003 (ip), vehicle: Klucel (hydroxypropylcellulose) (HPC)
# [19] = dose: 200.0 mg/kg/injection, schedule: Q01DX009 (ip), vehicle: Klucel (hydroxypropylcellulose) (HPC)
# [20] = dose: 200.0 mg/kg/injection, schedule: Q04DX003 (ip), vehicle: saline with Tween-80
# [21] = dose: 100.0 mg/kg/injection, schedule: Q04DX002 (ip), vehicle: saline
compound,measurement,setting,value
CC(=O)Nc1ccc(/C=N/NC(=O)c2cccc3ccccc23)cc1,survivor count,[1],4 of 4
same,survivor count,[2],2 of 4
c1ccc([P+](c2ccccc2)(c2ccccc2)C2OCCO2)cc1,survivor count,[3],5 of 6
CC(O)CN(CC(C)O)c1ccccc1 (centres undefined),survivor count,"dose: 400.0 mg/kg/injection, schedule: Q01DX009 (ip), vehicle: saline with Tween-80",3 of 6
CCCCOP(=O)(/C=C\c1ccco1)OCCCC,survivor count,"dose: 200.0 mg/kg/injection, schedule: Q01DX009 (ip), vehicle: carboxymethylcellulose (CMC)",2 of 6
same,survivor count,"dose: 400.0 mg/kg/injection, schedule: Q01DX009 (ip), vehicle: carboxymethylcellulose (CMC)",0 of 6
CCNCCCCCCNCC,survivor count,[4],5 of 6
same,survivor count,[5],0 of 6
same,survivor count,[6],0 of 6
CN(C/C=C/CN(C)P(=O)(N1CC1)N1CC1)P(=O)(N1CC1)N1CC1,survivor count,[7],3 of 6
same,T/C,[8],125 % of control
same,T/C,[9],147 % of control [5 of 6 alive]
same,survivor count,[10],1 of 6
same,survivor count,[11],0 of 6
S=C1CC2CCCC(C2)N1 (centres undefined),survivor count,"dose: 40.0 mg/kg/injection, schedule: Q01DX001 (ip), vehicle: carboxymethylcellulose (CMC)",3 of 6
same,survivor count,[9],2 of 6
same,survivor count,[10],1 of 6
same,survivor count,[11],1 of 6
COc1ccc(C(=O)Nc2cccc3ccccc23)cc1,survivor count,"dose: 100.0 mg/kg/injection, schedule: Q01DX009 (ip), vehicle: carboxymethylcellulose (CMC)",3 of 3
CCC[n+]1ccc(C#N)cc1,survivor count,[12],1 of 6
O=C(CC1CCCCN1)CC1CCCCN1 (centres undefined),survivor count,[6],2 of 6
O=C(O)CCN1CCN(c2cccc(Cl)c2)CC1,survivor count,[2],0 of 6
CCCCCCCCCCCCOc1ccccc1,survivor count,[13],6 of 6
COc1ccc2c(=O)c3ccccc3ncc2c1,survivor count,[14],5 of 6
same,survivor count,"dose: 200.0 mg/kg/injection, schedule: Q01DX009 (ip), vehicle: saline",0 of 6
same,survivor count,[15],0 of 6
N#Cc1cc2c3ccccc3ncc2c2ccccc12,survivor count,[16],6 of 6
same,survivor count,[17],5 of 6
C[C@]12CC[C@H](O)CC1=CC[C@@H]1[C@@H]2CC[C@](C)(C(=O)O)[C@H]1CC1Nc2ccccc2C1=O (some centres undefined),survivor count,"dose: 100.0 mg/kg/injection, schedule: Q01DX001 (ip), vehicle: saline",6 of 6
O=C(O)C1OC(n2cc(F)c(=O)[nH]c2=O)CC1O (centres undefined),survivor count,"dose: 100.0 mg/kg/injection, schedule: Q01DX005 (ip), vehicle: saline",6 of 6
same,survivor count,"dose: 200.0 mg/kg/injection, schedule: Q01DX005 (ip), vehicle: saline",5 of 6
Clc1ccc2nc(Cl)c(Cl)nc2c1,survivor count,[18],6 of 6
O=NN(CCCl)C(=O)N1CCN(C(=O)N(CCCl)N=O)CC1,T/C,"dose: 50.0 mg/kg/injection, schedule: Q01DX001 (ip), vehicle: carboxymethylcellulose (CMC)",127 % of control
same,T/C,[9],127 % of control
same,survivor count,"dose: 500.0 mg/kg/injection, schedule: Q01DX001 (ip), vehicle: carboxymethylcellulose (CMC)",6 of 6
same,survivor count,"dose: 600.0 mg/kg/injection, schedule: Q01DX001 (ip), vehicle: carboxymethylcellulose (CMC)",5 of 6
same,survivor count,"dose: 800.0 mg/kg/injection, schedule: Q01DX001 (ip), vehicle: carboxymethylcellulose (CMC)",6 of 6
same,survivor count,"dose: 1000.0 mg/kg/injection, schedule: Q01DX001 (ip), vehicle: carboxymethylcellulose (CMC)",6 of 6
COC(=O)c1ccccc1NC(=O)Nc1ccccc1Cl,survivor count,[19],6 of 6
same,survivor count,[18],6 of 6
CSc1ncnc2[nH]ncc12,survivor count,"dose: 100.0 mg/kg/injection, schedule: Q01DX009 (ip), vehicle: saline with Tween-80",3 of 6
same,survivor count,[20],1 of 6
same,survivor count,[13],0 of 6
COC1OC2COC(c3ccccc3)OC2C(=O)C1OS(=O)(=O)c1ccc(C)cc1 (centres undefined),survivor count,[3],6 of 6
CCCN1CCc2cc(OC)c(OC)cc2C1Cc1ccc(OC)c(OC)c1 (centres undefined),survivor count,"dose: 300.0 mg/kg/injection, schedule: Q01DX001 (ip), vehicle: other",0 of 6
Cc1ccccc1NC(=O)NCCBr,survivor count,"dose: 200.0 mg/kg/injection, schedule: Q01DX009 (ip), vehicle: saline with Tween-80",3 of 3
CCOP(=S)(S)OCC.[Pd],survivor count,"dose: 50.0 mg/kg/injection, schedule: Q01DX009 (ip), vehicle: other",4 of 6
same,survivor count,"dose: 100.0 mg/kg/injection, schedule: Q01DX009 (ip), vehicle: other",1 of 6
CCN(CC)Cc1cc(N)ccc1O,survivor count,[15],0 of 6
COc1cc2c(c(OC)c1O)-c1ccc(OC)c(=O)cc1[C@@H](NC(C)=O)CC2,T/C,[7],140 % of control
same,T/C,[8],135 % of control
same,survivor count,[14],6 of 6
same,T/C,[21],127 % of control
same,survivor count,[21],3 of 3
same,T/C,[4],126 % of control
same,survivor count,"dose: 200.0 mg/kg/injection, schedule: Q04DX002 (ip), vehicle: saline",3 of 3
same,survivor count,"dose: 400.0 mg/kg/injection, schedule: Q04DX002 (ip), vehicle: saline",3 of 3
same,survivor count,[6],6 of 6
NC1=NC(c2ccc(Cl)cc2)N(c2ccc(S(N)(=O)=O)cc2)C(N)=N1 (centres undefined),survivor count,[12],0 of 6
[O]=[Cr](=[O])([OH])[O][Cr](=[O])(=[O])[OH],survivor count,[8],4 of 6
same,survivor count,"dose: 50.0 mg/kg/injection, schedule: Q04DX003 (ip), vehicle: saline",0 of 6
same,survivor count,[4],0 of 6
CC(=O)c1ccc(N2CCN(C)CC2)cc1,survivor count,[1],2 of 4
same,survivor count,[2],0 of 4
C[n+]1cc(N)cc2ccccc21,survivor count,"dose: 100.0 mg/kg/injection, schedule: Q01DX001 (ip), vehicle: other",0 of 4
same,survivor count,"dose: 200.0 mg/kg/injection, schedule: Q01DX001 (ip), vehicle: other",0 of 4
same,survivor count,"dose: 400.0 mg/kg/injection, schedule: Q01DX001 (ip), vehicle: other",0 of 4
COc1cc(O)c2c(c1)C(=O)C1=C(C2=O)C(O)[C@H](O)[C@](C)(O)[C@H]1O (some centres undefined),survivor count,[16],0 of 6
same,survivor count,[19],0 of 6
same,survivor count,[17],0 of 6
CCCCCCCCN1CCCNCC1,survivor count,"dose: 50.0 mg/kg/injection, schedule: Q01DX009 (ip), vehicle: saline",3 of 6
same,survivor count,[4],2 of 6
same,survivor count,[5],0 of 6
same,survivor count,[6],0 of 6
CN(C)CCCN=Cc1ccccc1O.CN(C)CCCN=Cc1ccccc1O.[Ni+2],survivor count,[3],1 of 6
same,survivor count,[20],0 of 6
same,survivor count,[13],0 of 6
O=NN(Cc1ccc(Cl)cc1)C(=O)NCc1ccc(Cl)cc1,T/C,"dose: 300.0 mg/kg/injection, schedule: Q01DX Z (ip), vehicle: carboxymethylcellulose (CMC)",127 % of control
CC12CCC3C(C1)C(C(=O)O2)C(=O)OC3(C)C (centres undefined),survivor count,"dose: 300.0 mg/kg/injection, schedule: Q01DX009 (ip), vehicle: Klucel (hydroxypropylcellulose) (HPC)",0 of 6
